Results as given in paper PMC4503752.
No constants are given. Whether binding was seen depends on the method and setting. In cells and extracts the contact can be indirect. Some entries that bind do so weakly or less than the wild type.

The chains behind the UniProt entries cited, without tags or fusion partners.
UniProt O88569: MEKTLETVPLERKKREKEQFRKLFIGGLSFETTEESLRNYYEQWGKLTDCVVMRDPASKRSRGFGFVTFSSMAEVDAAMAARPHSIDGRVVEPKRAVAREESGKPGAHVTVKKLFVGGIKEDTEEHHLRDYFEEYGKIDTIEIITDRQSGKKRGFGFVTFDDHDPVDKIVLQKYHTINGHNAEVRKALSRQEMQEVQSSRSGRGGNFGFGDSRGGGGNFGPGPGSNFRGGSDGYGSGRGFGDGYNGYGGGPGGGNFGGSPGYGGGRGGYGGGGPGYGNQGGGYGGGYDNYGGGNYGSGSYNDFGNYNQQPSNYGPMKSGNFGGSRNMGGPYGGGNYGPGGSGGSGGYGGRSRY
UniProt Q61584: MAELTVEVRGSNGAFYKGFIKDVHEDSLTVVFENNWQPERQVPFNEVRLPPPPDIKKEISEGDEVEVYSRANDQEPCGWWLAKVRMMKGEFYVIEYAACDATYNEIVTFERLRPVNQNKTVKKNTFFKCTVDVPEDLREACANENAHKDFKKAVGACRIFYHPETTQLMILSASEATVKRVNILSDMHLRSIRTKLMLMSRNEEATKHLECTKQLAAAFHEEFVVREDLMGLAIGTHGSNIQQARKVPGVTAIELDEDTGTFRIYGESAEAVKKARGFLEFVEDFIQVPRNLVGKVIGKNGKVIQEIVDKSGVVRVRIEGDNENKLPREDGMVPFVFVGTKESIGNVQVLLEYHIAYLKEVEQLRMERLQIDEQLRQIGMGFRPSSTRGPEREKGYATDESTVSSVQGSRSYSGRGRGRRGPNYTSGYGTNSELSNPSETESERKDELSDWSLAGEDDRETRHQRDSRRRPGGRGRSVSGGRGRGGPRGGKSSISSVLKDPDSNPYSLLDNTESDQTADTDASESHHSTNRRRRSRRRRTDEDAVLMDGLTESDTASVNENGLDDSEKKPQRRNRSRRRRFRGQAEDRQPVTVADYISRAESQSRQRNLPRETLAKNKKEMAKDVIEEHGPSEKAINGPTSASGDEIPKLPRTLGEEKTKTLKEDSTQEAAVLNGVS

Key:
[1] = molecular target: HNRNPA2B1 (heterogeneous nuclear ribonucleoprotein A2/B1) (mouse (endogenous in ADSCs)) (UniProt O88569); assay: co-IP; lysates (150 mM NaCl, 0.5% IGEPAL CA-630, 50 mM Tris-HCl pH 8.0) of miR-369 transfected Dicer1-KO ADSCs; immunoprecipitation with primary antibody on Protein G Sepharose, western blot with the counterpart antibody; controls miR-369-5p and Dicer1 wild-type ADSCs
[2] = molecular target: Argonaute 1 (AGO1) (mouse (endogenous in ADSCs)) (UniProt Q8CJG1); assay: as above

binding [1] | binding [2] | Substance
binds |  | Argonaute 1 (AGO1) (from UniProt Q8CJG1 1-857)
 | binds | HNRNPA2B1 (heterogeneous nuclear ribonucleoprotein A2/B1) (from UniProt O88569 1-353)
 | binds | fragile X mental retardation-related protein 1 (FXR1) (from UniProt Q61584 1-677)
